Values of other authors, collected in patent US20250115576A1, “THERAPEUTIC COMPOUNDS AND METHODS OF USE THEREOF” (Genentech, Inc., priority 2018, published 2025).

Conditions: administered topically (Lidoderm patch); cited from earlier work

In the case of CCN(CC)CC(=O)Nc1c(C)cccc1C [lidocaine], the plasma concentrations is given as “about 1 μM”.
